The target of assay [1] is 人半乳糖凝集素-9 (human galectin-9) (human) (UniProt O00182). The experiment in a line: HuProt human proteome microarray, fluorescent secondary antibody.
In assay [2] the target is 人细胞表达的半乳糖凝集素-9 (galectin-9 as expressed by human tumour-derived cells and tissue) (human) (UniProt O00182). The experiment in a line: cell-based binding to human cancer cell line CRL-2134.

The chains behind the UniProt entries cited, without tags or fusion partners. Where a name states a change or a piece, a line headed by the entry shows the natural chain unless it says otherwise. A line that says so, or that is headed by a name, gives the form on record, which may keep a tag or linker.
人半乳糖凝集素-9 (human galectin-9) (O00182, form named): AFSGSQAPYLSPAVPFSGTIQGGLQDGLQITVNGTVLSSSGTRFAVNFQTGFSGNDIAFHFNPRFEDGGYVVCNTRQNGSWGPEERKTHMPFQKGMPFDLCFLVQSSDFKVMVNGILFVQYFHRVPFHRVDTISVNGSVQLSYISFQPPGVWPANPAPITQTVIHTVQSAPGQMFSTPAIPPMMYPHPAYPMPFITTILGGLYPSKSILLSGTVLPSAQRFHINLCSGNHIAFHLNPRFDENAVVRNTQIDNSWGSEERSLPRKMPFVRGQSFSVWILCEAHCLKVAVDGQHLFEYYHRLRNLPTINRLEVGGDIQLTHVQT

Results are given in words; binding and its absence hold for the method and conditions named. Some results given as binding are weak or reduced against the parent protein; the word gives no strength.

B1: G9.2-17(IgG4) (antibody, V domains shown)
VH: EVQLVESGGGLVQPGGSLRLSCAASGFTVSSSSIHWVRQAPGKGLEWVAYISSSSGYTYYADSVKGRFTISADTSKNTAYLQMNSLRAEDTAVYYCARYWSYPSWWPYRGMDYWGQGTLVTVSS
VL: DIQMTQSPSSLSASVGDRVTITCRASQSVSSAVAWYQQKPGKAPKLLIYSASSLYSGVPSRFSGSRSGTDFTLTISSLQPEDFATYYCQQSSTDPITFGQGTKVEIKR
For B1, in assay [1], the binding entry is on record as “binds”.

B2: mIgG1 G9.2-17 (antibody, V domains shown)
VH: EVQLVESGGGLVQPGGSLRLSCAASGFTVSSSSIHWVRQAPGKGLEWVAYISSSSGYTYYADSVKGRFTISADTSKNTAYLQMNSLRAEDTAVYYCARYWSYPSWWPYRGMDYWGQGTLVTVSS
VL: DIQMTQSPSSLSASVGDRVTITCRASQSVSSAVAWYQQKPGKAPKLLIYSASSLYSGVPSRFSGSRSGTDFTLTISSLQPEDFATYYCQQSSTDPITFGQGTKVEIKR
On to B2, for which the binding result in assay [2] is listed as “binds”.

(Values after patent CN117500522A.)
